No constants are given. Whether binding was seen depends on the method and setting. Binding seen in cells or lysates may run through a third protein. A yes stands for co-enrichment or nearness to the bait. Other partners may have been found.
Target: Msh6^Tt-3HA (T. thermophila) (UniProt Q23K54)
Assay: affinity purification with mass spectrometry; 8 h of conjugation; cells lysed by sonication on ice in PBS; Msh6^Tt-3HA precipitated by its HA tag (Pierce HA-Tagged Magnetic IP/Co-IP kit), washes TBS and TBS-T; LC-MS/MS, MaxQuant iBAQ; WT lysate without HA tag as blank control; hits: iBAQ WT/iBAQ Msh6^Tt-3HA <= 0.1

Protein sequences, listed by entry. Tags and fused reporters are not part of them. Lines headed by an entry give the natural chain unless they say otherwise; changes in a name come on top.
UniProt Q23K54: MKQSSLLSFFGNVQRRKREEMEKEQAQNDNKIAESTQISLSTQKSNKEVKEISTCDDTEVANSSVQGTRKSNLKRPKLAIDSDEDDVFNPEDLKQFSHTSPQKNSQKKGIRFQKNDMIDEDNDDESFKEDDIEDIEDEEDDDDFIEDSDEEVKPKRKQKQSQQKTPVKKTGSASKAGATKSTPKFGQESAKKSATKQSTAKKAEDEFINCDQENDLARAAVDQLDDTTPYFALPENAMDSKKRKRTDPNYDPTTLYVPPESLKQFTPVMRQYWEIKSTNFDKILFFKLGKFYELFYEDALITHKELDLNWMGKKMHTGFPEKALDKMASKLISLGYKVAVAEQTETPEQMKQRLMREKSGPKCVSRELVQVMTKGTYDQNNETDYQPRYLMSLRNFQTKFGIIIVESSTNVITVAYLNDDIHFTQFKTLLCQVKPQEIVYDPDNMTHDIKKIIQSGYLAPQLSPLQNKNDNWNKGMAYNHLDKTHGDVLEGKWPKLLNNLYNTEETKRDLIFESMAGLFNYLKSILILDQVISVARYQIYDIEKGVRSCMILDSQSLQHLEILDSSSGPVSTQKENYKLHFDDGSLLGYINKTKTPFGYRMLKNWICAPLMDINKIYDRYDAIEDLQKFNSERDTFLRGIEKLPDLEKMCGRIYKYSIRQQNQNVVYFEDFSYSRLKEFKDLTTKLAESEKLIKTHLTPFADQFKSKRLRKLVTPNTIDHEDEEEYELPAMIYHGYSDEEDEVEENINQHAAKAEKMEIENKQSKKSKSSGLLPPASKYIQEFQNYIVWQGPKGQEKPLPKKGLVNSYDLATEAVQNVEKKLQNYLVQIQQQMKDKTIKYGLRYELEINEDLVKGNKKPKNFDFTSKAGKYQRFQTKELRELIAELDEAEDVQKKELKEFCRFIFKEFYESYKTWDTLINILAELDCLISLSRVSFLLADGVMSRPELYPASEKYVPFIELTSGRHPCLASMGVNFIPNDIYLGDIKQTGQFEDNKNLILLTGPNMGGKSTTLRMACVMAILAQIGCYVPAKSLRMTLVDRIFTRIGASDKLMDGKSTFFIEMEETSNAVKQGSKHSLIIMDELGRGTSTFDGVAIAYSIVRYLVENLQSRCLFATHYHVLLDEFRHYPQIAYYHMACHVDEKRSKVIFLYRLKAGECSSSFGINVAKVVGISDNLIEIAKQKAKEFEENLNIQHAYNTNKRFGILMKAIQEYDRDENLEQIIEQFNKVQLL

binding | Binder
binds | RAB11B (RAB GTPase 11B) (protein, UniProt E1CAZ3 1-214) MASKNEDEYDFLFKIVLIGDSGVGKTNLLSRFTKNEFNMDSKPTIGVEFATKTVITENKYIKAQIWDTAGQEKYRAITNAYYRGAVGALTLYDITKQQTFDNVKKWLHELREYADANIICMLIGNKCDLQEMRQVKTEDAAKFAEENNLAFMETSAAQAINVDQAFQKLITEIYNNLKTRPNEEKKKAQPQQNGNNIIKDFKQPTQAEKEKKCC
binds | TTHERM_00355660 (protein, UniProt Q22Y05 1-318) MHAINYLTNLEKDINFNLLKFVLILKNYFYKMIARSFQRSLLYQLKQKPINSFASLGVFNKYKFSTSQQDGKKQELEEKSRYIMNELKDKDNQGTGSMRFSREKNFQSYVIYEHHMDQKEIRLKIRLRLLSSSIWFGAGVLVFHYVHPLAAFIPLIIMSRSIMSYKMGSNYTKKLINKVQLSEDKASVKLYALSGDIYECAIEEMDFQGINDLSDAKSNDQTLKEDQNSELSKLKQSSFLAMFDTTDKQGNYLKDLKILFNDQLVNMENAELLTKILRGDKDAVLSFQYVNEYDNSSDEISDEKLEEQLQEEIRKRKK
binds | TTHERM_000079948 (protein, UniProt W7XIA6 1-304) METALHLAKTRKKGKTNVRELGFIRVNTFVSNKSNQRVCKLNQQSLNQFYSGIIRIKEDNLKKSKVLIPNYFTQPSILCHLLLYNFKTRTVKSNQKYLKTWLISIIYISINIISLSELRVNNNLLRSNNQQQYVYGFVYYKNLIFKYTVFIANKNHKFQQKQFQLYQFTIILCLHLNNQFLCNQKSCTVKFRKDCRLFLIITFKICKDFLIDNQFCTEKQRLKIKVTKIYNQINYLSNCYQVVIQIGKINQIKNVFINKQINFKKQILQCILCFTKINKTRFIFNQKQQVQQFFNKCINEKIKY
binds | TTHERM_01076960 (protein, UniProt Q22C43 1-679) MGDQIQNNNMITMRPPKIKNKAANPIQITAEQLLQRAFLDRKKPFVEPDYRIRDEDDLNEIKQRKRKEFENKIRQQRFHMGHWIKYAVFEEGLQEFRRARSVYERALEVDYKNISLWLKYIEMEMRHKFINHARNVFERAIELLPRVDQFWYKYAYMEEMIANYVAARNIFQRWMEWRPEEKAWLAYLSFEQRMGEVQNARQVMYNYMDAFPRLKTYLKVIKFEIKLGYKQEARQLFEKTLEELGQEALKEEYFVNFAKFEIRNQEYDRAREIFKFGLENIPKEKSKKLYEEYLSFEKQHGTKDDIDELIFNERRLHYKLLIAENKMNYDAWFDLVNLEIATGNSARTRDTFEHAVKNVPLAQEKRLWRRYIYLWYNYATFEEMEGNDPVKAKEVYERALKLVPHSKFTFSKLWVMYAHFQVRHENLEAARKIFGTAIGKCPNDKLFREYIDLEYKLANIDRVRKIYEKYIEVFPDNPDPFIQWAQLEKSLPELERYRAIFDLAINRPTMNMPEKVWKAYIDNEIELEENENVRNLFEELLKRSKNVKIWLSYASFEAKIDDREKCRAVYTRAEEYFKAEKLKEERAIILESWRKTELQFGDAQFIAQINAKQPQRVKKERKIVIAEGDIEEEAGKEEYYDYIFPGEEEGQNLTKLIQKAKQKALEKKLKEQAENQQNA
binds | TTHERM_00085290 (protein, UniProt Q236R9 1-254) MKIDSNLVVFITGASSGFGIQVGLDLLKKGCKCYLTDKDDIELQLISQYSSSQVVFRNLDVTNEEGIKKAIEDCVMTFGHIDAVLNSAGIGSLGCITSGDCNNKALERCLNINVIGTFNVSKYAALQMAQQQKQNKERKDYAIINVGSIASVNALERGTIYGASKGAVLSMTIPMARDLGKYGIRVVCICPGFFNTNMVKQIPEENLKNLAKLNCLGRHGEPSEFSSAFQAIIENTFINGTHFQLDSQMGIPNL
binds | TTHERM_00357080 (protein, UniProt Q22XW3 1-219) MLNKVVKRLFSYKSTIPATLPQLKFEYNELEPVLTANLLKFHHGKHHQAYVNNLNAIYEQISDAQKKNDVHKIAQLQSGLRFNLGGHINHAIYWDNLAPVSRGGGVFPDQNSPLTKAIQEKWGSYENFIQIFNGRTAAIQGSGWGWLGYDTVSKSLKMFELGNQDMPEWNSVIPLLTIDVWEHAYYLDYQNLRPKYLTEIWKVVNWQEVERRYLDAIKA

— article PMC10743813
